Assay results from patent US10076576B2 (priority 2012, dated 2018).

Assay: general procedure: Fmoc solid-phase peptide synthesis; Fmoc-Leu-Wang resin (also Fmoc-Gly-Wang, Fmoc-Phe-Wang); 2-(6-chloro-1H-benzotriazole-1-yl)-1,1,3,3-tetramethyluronium hexafluorophosphat
Settings: whole synthesis, 214 nm, scale of the general procedure 5 g resin

Row | Substance | crude HPLC purity
1 | Fmoc-ALAF-OH | 90%
2 | Fmoc-ALAL-OH | 90%
3 | Fmoc-ALPF-OH | 98%

* marks the point of attachment. Fmoc = O=C(OCC1c2ccccc2-c2ccccc21)*
